# Measurements as given in publication PMC3387161, “Small Molecules Targeted to a Non-Catalytic “RVxF” Binding Site of Protein Phosphatase-1 Inhibit HIV-1” (PLoS ONE, 2012).
# Protein sequences, listed by entry. Tags and fused reporters are not part of them.
# UniProt P62136: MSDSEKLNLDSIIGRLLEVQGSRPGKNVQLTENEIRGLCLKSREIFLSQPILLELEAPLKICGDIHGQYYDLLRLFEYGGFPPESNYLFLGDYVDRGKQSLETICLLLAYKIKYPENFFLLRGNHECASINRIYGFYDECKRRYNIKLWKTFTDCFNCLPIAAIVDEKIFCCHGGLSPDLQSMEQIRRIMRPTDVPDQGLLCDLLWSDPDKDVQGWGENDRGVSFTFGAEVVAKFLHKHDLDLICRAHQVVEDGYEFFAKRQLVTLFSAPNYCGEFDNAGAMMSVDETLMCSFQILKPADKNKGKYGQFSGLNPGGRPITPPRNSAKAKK
# UniProt Q12972: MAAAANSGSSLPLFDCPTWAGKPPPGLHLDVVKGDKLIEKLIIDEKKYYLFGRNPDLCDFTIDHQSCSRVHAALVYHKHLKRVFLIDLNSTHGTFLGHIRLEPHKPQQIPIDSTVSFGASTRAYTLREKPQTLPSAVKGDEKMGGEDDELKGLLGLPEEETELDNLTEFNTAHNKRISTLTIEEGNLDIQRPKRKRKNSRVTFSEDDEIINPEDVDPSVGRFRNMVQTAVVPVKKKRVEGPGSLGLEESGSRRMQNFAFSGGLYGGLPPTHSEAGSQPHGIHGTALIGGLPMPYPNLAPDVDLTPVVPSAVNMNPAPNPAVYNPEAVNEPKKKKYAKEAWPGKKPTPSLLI
# These are yes or no findings as the source states them, for the method shown. In cells and extracts the contact can be indirect. A yes stands for co-enrichment or nearness to the bait. Other partners may have been found.
# Molecular target: endogenous PP1α (human (endogenous in 293T)) (UniProt P62136)
# Test: affinity purification with mass spectrometry
row,binding,Molecule
1,binds,NIPP1 (Nuclear Inhibitor of PP1) (from UniProt Q12972 1-351)
2,binds,"PNUTS (Phosphatase Nuclear Targeting Subunit) (protein, UniProt Q96QC0 1-940) MGSGPIDPKELLKGLDSFLNRDGEVKSVDGISKIFSLMKEARKMVSRCTYLNILLQTRSPEILVKFIDVGGYKLLNNWLTYSKTTNNIPLLQQILLTLQHLPLTVDHLKQNNTAKLVKQLSKSSEDEELRKLASVLVSDWMAVIRSQSSTQPAEKDKKKRKDEGKSRTTLPERPLTEVKAETRAEEAPEKKREKPKSLRTTAPSHAKFRSTGLELETPSLVPVKKNASTVVVSDKYNLKPIPLKRQSNVAAPGDATPPAEKKYKPLNTTPNATKEIKVKIIPPQPMEGLGFLDALNSAPVPGIKIKKKKKVLSPTAAKPSPFEGKTSTEPSTAKPSSPEPAPPSEAMDADRPGTPVPPVEVPELMDTASLEPGALDAKPVESPGDPNQLTRKGRKRKSVTWPEEGKLREYFYFELDETERVNVNKIKDFGEAAKREILSDRHAFETARRLSHDNMEEKVPWVCPRPLVLPSPLVTPGSNSQERYIQAEREKGILQELFLNKESPHEPDPEPYEPIPPKLIPLDEECSMDETPYVETLEPGGSGGSPDGAGGSKLPPVLANLMGSMGAGKGPQGPGGGGINVQEILTSIMGSPNSHPSEELLKQPDYSDKIKQMLVPHGLLGPGPIANGFPPGGPGGPKGMQHFPPGPGGPMPGPHGGPGGPVGPRLLGPPPPPRGGDPFWDGPGDPMRGGPMRGGPGPGPGPYHRGRGGRGGNEPPPPPPPFRGARGGRSGGGPPNGRGGPGGGMVGGGGHRPHEGPGGGMGNSSGHRPHEGPGGGMGSGHRPHEGPGGSMGGGGGHRPHEGPGGGISGGSGHRPHEGPGGGMGAGGGHRPHEGPGGSMGGSGGHRPHEGPGHGGPHGHRPHDVPGHRGHDHRGPPPHEHRGHDGPGHGGGGHRGHDGGHSHGGDMSNRPVCRHFMMKGNCRYENNCAFYHPGVNGPPLP"
